# Screening data, single-dose tests

Data taken from ChEMBL document CHEMBL3988442, “University of Dundee, Small-Polar-MMV Screening Library” (2021).

The filed quantity is “Percent Effect” (%). The controls that fix the scale are not given in the record; negative values are as filed. The compounds are a random part of those screened. Two or more numbers in one place are separate tests of the same structure; such repeats can differ widely.

A: 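Phenotypic screen: M. tuberculosis growth, cholesterol and DPPC medium, 4 days; the read-out is not stated. Concentration: 50 µM. Direction is inferred from retests: higher values go with more growth inhibition. Size under these conditions: about 69,000 compounds, about 370 of them at 50% or above in at least one test.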
B: 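Whole-cell growth test on Mycobacterium tuberculosis, read after 3 days in glucose-containing 7H9 medium; the read-out is not stated. Concentration: 50 µM. Higher reads as more growth inhibition (inferred: compounds with an IC50 in retests scored well above the rest). Size under these conditions: about 69,000 compounds, about 760 of them at 50% or above in at least one test.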

compound,A,B
CCOc1nnc(CN(C)C2CCCN(c3cccnn3)C2)s1 (stereo not given),-25.04%,30.72% and -10.97%
[H][C@@]12COC[C@]1(COc1cccnc1)CN(C(=O)Cc1ccsc1)C2,7.492%,12.49%
CN1CCN(C(=O)Cc2ccccn2)Cc2cccnc21,-27.41%,-2.762% and -9.93%
Cc1cncc(C(=O)N2C[C@@H](C(=O)O)[C@H](C(C)C)C2)c1,-15.93%,1.483%
COc1c(C2CCCN2C(=O)c2cscn2)c(C)nn1C (stereo not given),-27.46%,-16.64%
CC(C)C(=O)N1CCN(Cc2cc(-c3ccncc3)nn2C)CC1,0.3846%,3.365%
O=C(CNc1cccc(CC(F)(F)F)c1)NCc1ccco1,29.11%,19.75%
CC(C)N(C)Cc1cncc2c1CCN(C(=O)c1cccc(C#N)c1)C2.Cl.Cl,13.92%,-13.72% and -2.122%
CC(=O)NC[C@]1(O)CCN(C(=O)c2ccc(F)c(Cl)c2)C[C@H]1O,-4.726%,7.895%
Cl.O=S1(=O)CCC(NCCn2cncc2-c2ccc3c(c2)CCCO3)C1 (stereo not given),-3.267%,6.063%
CC(C)Nc1nc2c(s1)C(=O)CN(CC1CC1)C2,-21.99%,-11.59%
Cc1nc2sccn2c1C(=O)N1CCc2c(nc(N)[nH]c2=O)C1,-5.876% and -3.541%,-17.63%
CCOc1cc2c(cc1CCC(=O)O)CCC2,0.8333%,2.409%
COc1ccccc1C(=O)N(C)C1CCN(c2ccccn2)CC1,14.12%,23.39%
CC1CCN(S(=O)(=O)c2cccnc2)c2ccccc2S1 (stereo not given),-18.07%,9.865%
[H][C@]12CCN(C(C)=O)CC[C@@]1([H])S(=O)(=O)N(CC)C2,-36.36%,-23.23%
COC1COC2(CCN(CC3CCOCC3)CC2)C1.O=C(O)C(F)(F)F (stereo not given),-11.75%,-10.27%
c1ccc(Cc2nc(CNCCn3cccn3)cs2)cc1,18.27%,19.1% and 31.82%
Cc1nn(C)cc1CN1CCCCCC1c1ccc(Cl)cc1 (stereo not given),23.56%,26.98%
N#CCCN(Cc1ccco1)C(=O)C1CCCc2ccccc21 (stereo not given),20.9%,24.06%
O=C(CCc1ccccc1)N1CCC(c2n[nH]c(C3CC3)n2)CC1,-5.217%,-32.48%
Cc1cc(N(Cc2ccccc2F)C2CC2)n2nc(C(F)(F)F)nc2n1,5.774%,11.29%
COc1ccc(C(=O)C2CCCN(c3cc(OC)ncn3)C2)c(C)c1 (stereo not given),-6.738%,37.85%
COc1ccc(C)cc1C(C)NS(=O)(=O)c1ccc2c(c1)CCC(=O)N2 (stereo not given),-9.115%,1.808% and -23.06%
Cc1noc(C)c1CC(=O)NCC(CC(C)C)N1CCOCC1 (stereo not given),-22.15%,-12.02%
OCC1CCCN1c1cc(NCCc2ccccn2)ncn1 (stereo not given),-6.489%,7.241%
CCOCC1CN(Cc2ccncc2)Cc2nn(C)cc21.O=C(O)C(F)(F)F.O=C(O)C(F)(F)F (stereo not given),0.6885%,-13.28%
O=C(CCNc1ncccn1)N1CCC(Nc2cccnn2)CC1,13.35%,-31.03%
CC1(c2ccccc2)CCC(=O)N(CCN2CCOCC2)C1 (stereo not given),9.439%,5.165%
CC(C)(C)c1noc(CN2CCN(C(=O)c3cccs3)CC2)n1,-17.39%,-19.07%
Cn1c(=O)ccn(CC(=O)Nc2cccnc2)c1=O,-32.05%,-48.59%
CC[C@H](C)Nc1nccc(-c2cnc3sccn3c2=O)n1,-0.1947%,15.96%
CCc1nnc(CNC(=O)CCN2CCN(c3cccc(C)c3)CC2)s1,-0.1676% and 0.2129%,-0.9164%
NCc1cnn(-c2ccccc2C(=O)NCc2ccccc2Cl)c1,-8.328%,28.26%
N#Cc1ccc(N2CCCN(C(=O)CC3CCCO3)CC2)cc1 (stereo not given),-1.023%,38.98%
CCC(CC)n1ncc(C(=O)NS(=O)(=O)c2ccsc2)c1C,7.663%,3.456%
COc1cccc(CCC2CCCN(C(C)=O)C2)c1 (stereo not given),1.218%,45.24%
Cc1ccc(CC(=O)N2CCN(C3CCOC3=O)CC2)cc1 (stereo not given),0.06168%,-39.02%
CC(=O)N1CCN(C(C)c2nnc(CC(C)C)o2)CC1 (stereo not given),-12.13%,-2.258%
CCOCC1CN(Cc2ccoc2)Cc2cn(CC3CC3)nc21 (stereo not given),-4.644%,18.21%
CC1(C(=O)N2CCSCC2)CNCCO1 (stereo not given),0.3166% and -6.083%,4.465%
CCn1c(C2CCCN(Cc3cc(OC)cc(OC)c3)C2)nn(C)c1=O (stereo not given),-0.5334%,11.83% and -2.28%
Cn1cnc2c1C(COCC1CC1)CN(Cc1ccc3c(c1)OCO3)C2.O=C(O)C(F)(F)F.O=C(O)C(F)(F)F (stereo not given),-13.45% and -2.298%,-6.95%
CC(C)n1cnnc1CN(C)C(=O)c1ccc[nH]1,-1.2%,14.12%
N#Cc1ccc(OCC(O)CN2CCC(Cn3cccn3)CC2)cc1 (stereo not given),-20.33%,-26.39%
COc1ccccc1C1(CNc2cc(C(=O)N(C)C)ccn2)CC1,-18.9%,12.94%
Cn1cncc1-c1nnc([C@H]2CCN(Cc3cccnc3)C2)o1,-8.661%,18.63% and 24.2%
CCc1nnc(S(=O)(=O)Cc2cc(Cl)c3c(c2)OCO3)n1C,-9.837%,-27.95%
Cc1ccccc1N1CC(C)N(C(=O)CCn2cccn2)CC1=O (stereo not given),-19.79%,-12.12%
COCCN(Cc1nccs1)C(=O)c1c(C)cc(C)[nH]c1=O,-12.69%,-29.98%
CC(C)(NCc1cccc(C#N)c1)c1ccc2c(c1)OCO2,2.889%,-9.197% and 3.645%
CCNC(=O)CCc1c(C)nc2cc(O)nn2c1C,-9.153%,5.595%
[H][C@@]12CCC(=O)N(CCc3ccccc3)[C@]1([H])CCN(Cc1cnn(C)c1)C2,1.102% and 3.243%,-8.181%
CN(C)C(=O)CO[C@H]1CO[C@@]2(CCN(Cc3ccsc3)C2)C1.O=C(O)C(F)(F)F,-6.012%,-10.65%
Cc1nc(C2CCNC2)nc2c1CCC(=O)N2CC(C)C.Cl (stereo not given),-1.503% and 3.392%,13.28%
COCCNCc1cc2cc(C)cc(C)c2[nH]c1=O,23.29%,-12.12%
O=C(O)C(F)(F)F.[H][C@@]12C[C@H](C(=O)NC)[C@@]([H])(CN(Cc3ccc(C)cc3)C1)O2,-1.546%,0.05711%
Cn1ccc(C(=O)N(CC(F)(F)F)c2cccc(Cl)c2)cc1=O,-14.15% and 8.771%,-2.886% and -40.35%

Some entries from above, unchanged:

Cc1ccccc1N1CC(C)N(C(=O)CCn2cccn2)CC1=O (stereo not given) gave A: -19.79%; B: -12.12%.
COc1ccc(C)cc1C(C)NS(=O)(=O)c1ccc2c(c1)CCC(=O)N2 (stereo not given) gave A: -9.115%; B: 1.808% and -23.06%.
O=C(O)C(F)(F)F.[H][C@@]12C[C@H](C(=O)NC)[C@@]([H])(CN(Cc3ccc(C)cc3)C1)O2 gave A: -1.546%; B: 0.05711%.
CCn1c(C2CCCN(Cc3cc(OC)cc(OC)c3)C2)nn(C)c1=O (stereo not given) gave A: -0.5334%; B: 11.83% and -2.28%.
CC1(C(=O)N2CCSCC2)CNCCO1 (stereo not given) gave A: 0.3166% and -6.083%; B: 4.465%.
[H][C@@]12CCC(=O)N(CCc3ccccc3)[C@]1([H])CCN(Cc1cnn(C)c1)C2 gave A: 1.102% and 3.243%; B: -8.181%.
CCOc1nnc(CN(C)C2CCCN(c3cccnn3)C2)s1 (stereo not given) gave A: -25.04%; B: 30.72% and -10.97%.